Our source for the binding values is doi:10.1101/2025.05.11.653314.

These are yes or no findings as the source states them, for the method shown.

For experiment [1], the target named is T1, U. parvum ScpA (Ureaplasma parvum) (UniProt Q9PQE6).
T1 sequence: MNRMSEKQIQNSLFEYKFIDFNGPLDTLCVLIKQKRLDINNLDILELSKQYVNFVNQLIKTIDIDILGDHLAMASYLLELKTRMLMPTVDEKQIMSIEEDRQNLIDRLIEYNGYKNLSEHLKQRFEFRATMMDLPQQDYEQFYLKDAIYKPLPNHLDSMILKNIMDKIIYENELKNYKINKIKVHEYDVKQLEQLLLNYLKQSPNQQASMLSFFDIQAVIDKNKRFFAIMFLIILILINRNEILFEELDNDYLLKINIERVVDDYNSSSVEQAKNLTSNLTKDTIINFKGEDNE
Briefly: cross-linking.

For experiment [2], the target named is U. parvum ScpB (Ureaplasma parvum) (UniProt Q9PQE5). Briefly: cross-linking.

B1: U. parvum ScpB (protein, UniProt Q9PQE5 1-364)
chain: MNNDKKNKKNLLNNELDLAKYTLHNLSADNNDDENELELDWDGIDDEIIDNNQQIYQKKHINHKTRLFIEKDDKLNNHEQIESGNEIINQPKALSGQDFLEFVNSKLVQKNNNFKQNSKFLQNQLTNHELLREKLKPQEDFNKIFKTKDINVTEEIKIKDVKKNSSVSFRNSFNINDLNQNQITNIKSIIDSTLFLAGEEGVSLQDLKRTTGLNESSQLKTILNQLQKDYDVDDSGLVLVQFGEKFKLLTQSKNKDALSKFVTTSFRTPLSQRNLETLAIIAYNQPTTRAKIQAIRDRDPKPAIDALLKLNLIIEAGRQDTPGHPILYTVSQKFYDLFGIRNLTELPRLNKEINEFSPIDESTN
Consider B1, for which the binding result in experiment [1] and in experiment [2] was “no binding” each time.
